# In PubChem BioAssay AID493014 (National Center for Advancing Translational Sciences (NCATS), 2011):
# Out of some 340,000 compounds screened, about 170 (0.05%) were called active. The shares of active, inactive and inconclusive entries below differ from those in the screen. Calls come from the whole dose curve; as a rule, active = well fitted inhibition curve with a large enough effect in the signal ratio, with a control signal flat (not every such curve was filed as active); inconclusive = small, poorly fitted or top-dose-only effect, or effect the other way, or a change in a side signal; inactive = flat fitted curve, though single readings scatter; the % refers to the signal ratio. Where the call is inconclusive, the potency comes from a doubtful curve fit.
# Experiment: qHTS Assay to Find Inhibitors of Chronic Active B-Cell Receptor Signaling;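 for activity change, negative = inhibition: plate controls were basal doxycycline-induced cells for no effect and cells given 10 µM MG132 for full effect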
# Conditions: ABC-DLBCL IkBa-CBG/CBR reporter, luminescence ratio (green luciferase fused to IkBa over red control in TMD8 lymphoma cells), 4 h; activity change, negative = inhibition: at 46.1 µM (top of the series)
# How it was run: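 Concentration-response series (up to 46 uM) were applied to TMD8 dual-reporter cells for 4 h at 37C with doxycycline. Green/red ratio, after filter-overlap correction, defined %Activity; red signal alone was normalised to basal cells and zero luminescence.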
# Potency is the fitted concentration of half-maximal effect.
SMILES,Potency,"activity change, negative = inhibition"
COc1ccc(-c2cc(=O)n3[nH]cnc3n2)cc1,"inconclusive: 22.4 µM [falling, single point]",
COc1cc2c(cc1OC)C(c1ccccc1F)OC(=O)C2 (stereo not given),,inconclusive: -0.252%
O=C1c2cccc3c([N+](=O)[O-])ccc(c23)C(=O)N1Cc1cccnc1,"inconclusive: 14.1 µM [rising, partial curve, poor fit]",
CCOC(=O)c1oc2cc(C)cc(O)c2c(=O)c1-c1csc(C)n1,,inconclusive: -14.6%
CCCc1nc2ccc(NC(C)=O)cc2c(=O)n1Cc1ccc(Cl)cc1,,inconclusive: -24.2%
COC(=O)C1=C(C)NC2=C(C(=O)CC(C)(C)C2)C1c1ccsc1 (stereo not given),,inactive: 10.2%
NC(=O)c1c(NC(=O)c2cccnc2)sc2c1CCCC2,"inconclusive: 1.58 µM [rising, full curve, poor fit]",
COc1cccc(CNC(=O)CN2C(=O)N(c3cc(C)ccc3C)S(=O)(=O)c3ccccc32)c1OC,,inactive: -7.21%
O=C(Nc1nccs1)c1ccc(N2C(=O)[C@@H]3[C@H](C2=O)[C@H]2C=C[C@@H]3C2)cc1,,inconclusive: -2.76%
Cc1ccnc(N/C=C(\C#N)c2nc(-c3cccc(Br)c3)cs2)c1,,inconclusive: 12.4%
COc1ccc2c(c1)CCc1c(C(=O)N3CCCc4ccccc43)noc1-2,,inconclusive: 0.644%
COc1ccc2nc(N3CCOCC3)cc(C)c2c1,,inconclusive: 25.5%
COc1cc(NC(=O)n2ncc3cc(Cl)ccc32)cc(OC)c1,,inactive: -0.907%
CC(C)c1ccccc1-n1c(SCC(=O)N2CCc3ccccc3C2)nc2ccccc2c1=O,"inconclusive: 1.16 µM [rising, full curve, poor fit]",
O=C(CNC(=O)c1ccccc1F)NC1=NCCS1,,inconclusive: 8.62%
COc1ccccc1/C=C/C(=O)NCC(=O)N/N=C/c1cc(Br)ccc1OC,,inconclusive: 13.2%
COc1ccc(CCC(=O)Nc2ccc(Cl)c(S(=O)(=O)N3CCCC3)c2)cc1,"inconclusive: 8.91 µM [falling, partial curve, poor fit]",
NC(=O)c1ccccc1NCC(=O)c1ccc(Cl)cc1,"inconclusive: 31.6 µM [falling, partial curve, poor fit]",
Cc1cc(O)c(C(C[N+](=O)[O-])c2ccc(Cl)cc2Cl)c(=O)o1 (stereo not given),"inconclusive: 29.1 µM [falling, single point]",
CCC1=Nc2cc(C(=O)NCc3ccco3)ccc2Sc2ccc(C)cc21,"inconclusive: 0.651 µM [falling, full curve, poor fit]",
COc1ccccc1/C=C1\CCC(C2CCCC2)C1=O (stereo not given),"inconclusive: 12.6 µM [falling, partial curve, poor fit]",
CCN(C(=O)COC(=O)c1cc(-c2ccc(C)o2)nc2ccccc12)C1CCS(=O)(=O)C1 (stereo not given),"inconclusive: 17.8 µM [falling, partial curve, poor fit]",
CCN(CC)CCC(=O)N1c2ccccc2CCc2ccc(NC(=O)OC(C)C)cc21,,inconclusive: -5.84%
C/C(CC(=O)N1CCN(C=O)CC1)=N\NC(=O)c1ccc([N+](=O)[O-])cc1,,inconclusive: 18.2%
CCN(c1ccc(OC)cc1)S(=O)(=O)c1ccc(-c2ccc(=O)[nH]n2)o1,,inactive: -5.62%

# Quoted at random: 2 entries already listed
SMILES,Potency,"activity change, negative = inhibition"
COc1cc2c(cc1OC)C(c1ccccc1F)OC(=O)C2 (stereo not given),,inconclusive: -0.252%
COc1ccc(CCC(=O)Nc2ccc(Cl)c(S(=O)(=O)N3CCCC3)c2)cc1,"inconclusive: 8.91 µM [falling, partial curve, poor fit]",

# (cont.)

SMILES,Potency,"activity change, negative = inhibition"
O=C(NC(=S)Nc1ccccn1)c1ccccc1,"inconclusive: 31.6 µM [cytotoxic, single point]",
COc1cccc(/C=C/c2ccc3cccc(O)c3n2)c1,"inconclusive: 35.5 µM [cytotoxic, single point]",
Cc1onc(-c2ccccc2)c1C(=O)Nc1cccc(OC(C)C)c1,,inconclusive: -0.164%
N#Cc1c(-c2cccs2)nc(SCC(=O)c2cccs2)[nH]c1=O,,inconclusive: 259%
CCN(CC)C(=O)c1ccc(Oc2ccc([N+](=O)[O-])cc2Cl)cc1,,inconclusive: -13%
Cc1ccccc1N1CCN(S(=O)(=O)Cc2ccccc2)CC1,,inconclusive: -1.39%
Cn1ncc2c(Nc3ccc(O)cc3)nc(Cl)nc21,"inconclusive: 22.4 µM [falling, single point]",
O=S(=O)(Nc1cccc(-c2nc3cccnc3s2)c1)c1ccc2c(c1)OCCO2,"inconclusive: 20.6 µM [falling, partial curve]",
CCOC(=O)C1CCN(c2nc(C)nc3c2oc2ccccc23)CC1,,inconclusive: -0.642%
Cc1cccc(N2CCN(C(=O)c3cccc(S(=O)(=O)N4CCOCC4)c3)CC2)c1C,,inactive: 3.94%
CC(=O)c1ccc(N/N=C2/CCCNC2=O)cc1,,inconclusive: 8.89%
Cc1cc(C)nc(SCc2cn3c(C)cc(C)nc3n2)n1,,inconclusive: 1.89%
O=C(CC1N=C2c3ccccc3N=C(SCc3ccc(Cl)cc3)N2C1=O)NCCc1ccccc1 (stereo not given),,inactive: 12.7%
O=C(CSc1nnc(NC(=O)NC2CCCCC2)s1)Nc1ccccc1F,,inactive: 15.4%
COc1ccc(CCNC(=O)CCCCCN2C(=O)c3ccccc3C2=O)cc1,"inconclusive: 12.6 µM [rising, partial curve, poor fit]",
COc1ccc(OCCCC(=O)Oc2ccc(OC)cc2)cc1,,inconclusive: 27.3%
Cc1ccc(N2CCN(c3ccc(C)cc3)C2c2cccnc2)cc1,,inconclusive: 21.6%
O=C(O)c1cccc(N2C(=S)N=C(Nc3ccccc3)C23CCCCC3)c1,,inconclusive: 0.616%
Cc1ccc2nc(S(=O)(=O)O)[nH]c2c1,,inconclusive: 6.16%
Cc1ccc(S(=O)(=O)N2CCCCC2CCNC(=O)C(=O)NC2CC2)cc1 (stereo not given),,inconclusive: 11%
COc1ccc(-n2nc3cc(C)c(NC(=O)c4cccnc4)cc3n2)cc1,,inconclusive: 0%
S=C(Nc1cccc(Cl)c1)N1CCOCC1,,inconclusive: 20.9%
Cc1ccc(C2CC2c2n[nH]c(=S)n2-c2ccc(C)cc2)cc1 (stereo not given),,inactive: 8.17%
Nc1nonc1-n1nnc(C(=O)N/N=C/c2cccs2)c1CSc1ccccc1,"inconclusive: 7.08 µM [falling, full curve, poor fit]",
Cc1ccc(S(=O)(=O)/C(C#N)=C/c2c(N3CCC(C(N)=O)CC3)nc3ccccn3c2=O)cc1,"inconclusive: 0.366 µM [rising, full curve]",
